From paper PMC4457034

The chains behind the UniProt entries cited, without tags or fusion partners. Where a name states a change or a piece, a line headed by the entry shows the natural chain unless it says otherwise.
UniProt Q95RF6: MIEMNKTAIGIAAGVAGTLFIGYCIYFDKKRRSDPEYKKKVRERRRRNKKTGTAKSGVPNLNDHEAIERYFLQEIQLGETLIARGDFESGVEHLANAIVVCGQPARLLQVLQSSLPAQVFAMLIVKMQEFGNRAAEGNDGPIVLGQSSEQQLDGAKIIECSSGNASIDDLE

Experiments:
[1] = target: myc-tagged PINK1 lacking the mitochondrial targeting sequence (PINK1ΔMTS) (Drosophila); assay: co-IP; S2R+ extract, 1% Triton X-100 added to the IP buffer, extract spun at 135,000 g for 30 min (high-speed centrifugation co-IP)
[2] = target: myc-tagged TOM20 (Translocase of the outer membrane 20) (Drosophila) (UniProt Q95RF6); assay: as above
[3] = target: TOM20-myc from flies overexpressing UAS-TOM20-myc (Drosophila) (UniProt Q95RF6); assay: co-IP; fly extract from flies overexpressing UAS-TOM20-myc; TOM20 pulled down
[4] = target: myc-tagged TOM20 (Translocase of the outer membrane 20) (Drosophila) (UniProt Q95RF6); assay: co-IP; S2R+ cells transfected with myc-tagged proteins, normal culture conditions; reciprocal IPs (anti-Clu, anti-myc); IP buffer 20 mM HEPES pH 7.4, 50 mM KCl, 0.02% Triton X-100, 1% NP-40 (sub), 1 mM EDTA, 0.5 mM EGTA, 5% glycerol; extract spun at 12,000 g; 4°C overnight; Protein AG magnetic …

- binding [1]: binds
- binding [2]: binds
- binding [3]: binds
- binding [4]: binds
B1: Clueless (Clu), endogenous (protein, UniProt A1ZAB5 1-1448)
chain: MALETEAKNSNATATGDATATATKASGKAKENNNTAGGKKNLNPNSNQQNSNQNLVNGNGTAADGPAAKKKGKKNRNKSPTEPTTEAVLSNGHAEKPTVVDAVEDNADTNANVEKPQEGGAPDAEADGDDIDLDALQDIGITVNISSPGADLLCVQLSSMELVQEIHQLLMDREETCHRTCFSLQLDNVTLDNFAELKSINNLEQGSTIKVVEEPYTMREARIHVRHVRDLLKNLDPADAYNGIDCTSLTYLNTITQGDLLDKKRTRPDSVDCTPPEYVTPGVSDPPILPLHPNVKNAKGPQALKVLTTSAWNPPPGPRKLHGDLMYLYVVTMEDKRFHISACSKGFFINQSTDDTFNPKPDNPSHLSHSLIDLLSHISPSFRRAFQTIQKRRTMRHAFERVATPYQVYQWAAPILEHTVDAIRAEDAFSSKLGYEEHIPGQTRDWNEELQTTRELPRKTLPERLLRERAIFKVHGDFVTAATRGAMAVIDGNVLAINPGEDTKMQMFIWNNIFFSMGFDVRDHYKELGGDAAAFVAPRYDLHGVRVYNAVDIEGLYTLGTVVVDYRGYRVTAQSIIPGILEREQEQSVVYGSIDFGKTVLSHPKYLELLRQAGKHLKILPHVVLNERDEPVELCSSVECKGIIGNDGRHYILDLLRTFPPDVNFLKLQDVQLSKELVDMGFPIEHRHKLCCLRQELLEAFIEDRHVNFIRIAAARLQQLTTIKQSEKSEANPVPALEGAEAASKVNGAEKPDDKEKKNEEEEKKERSTSGEARAAAIVNAIREAQSNVATSNEVQAAEVVKRACAAVGSLKEKEFDFRFNPDVFSPGIRHADGEEGTSLAKQKVLVQEAAEFLVLKQIPAFIKEHMSHSSSPIDGQSLTESLHSHGINVRYLGKVIKILSQMPRMDYLHRIAVLELIVRATKHIYYTYMQNTEPLHLSAAISHFLNCLLTNGPVNPAVSSEEAHKKRGNGGKHNKHKSSKGGKGQQQQQTTGNQNGSSSGSSNSSSASDWTLMTPRSLWQQIRKEAKVYWDWELDCDSIETAVSKYGILRISLMRAFCLKVGIQVLLREYNFESKHKPTFGDDDIVNVFPIVKHISPRATDAYNFYTTGQAKIQQGLFKEGYELISGALNLLNNVFGALHQENGSCLRMLARLSYLLGDAQDALAIQQRAVIMSERVNGMDHPSTILEYTHLSLYSFANGHVGMSLKLLYRARYLMVLICGEDHPEVALIDSNISLILHALGEYELSLRFIEHALKLNLKYFGDKDMHVALSYHLMARTQSCMGDFRSALNNEKETYSFYKSQLGENHEKTRDSAECLRLLTQQAVLLQRKMNDIYSSGKLTSDLPPIHITPPSMGSVLDMLNTINGILFVKISRKDIVKVRSEIEKHFKTDSTENEVNDAINSIVAAANNNGEAEDAVSKDIKEQPEAGKQLTNGDKAAATEATSS

No constants are given. Whether binding was seen depends on the method and setting. Binding seen in cells or lysates may run through a third protein. Binding can be weak; no strength is given.
